Measurements reported in PubChem BioAssay AID1053208 (Peter MacCallum Cancer Centre, 2014).

Screen: 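Genes whose silencing cuts survival of bone tumour cells only with doxorubicin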 (primary screen)
Cells: mouse osteosarcoma cells, early-passage culture from an engineered mouse model of fibroblastic bone tumour
Reagent: siRNA pool against mouse genes, 40 nM
Time to read-out: about 120 h (48 h before drug, then 72 h with drug)
Treatment: doxorubicin 100 nM for 72 h, roughly 30-40% inhibitory dose
Measured: 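Viability read as ATP luminescence after 72 h of 100 nM doxorubicin or none, duplicate wells averaged, scaled to non-targeting siRNA, then expressed as robust z-scores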
Reading the numbers: viability z-score with doxorubicin: higher = more viable cells under doxorubicin; viability z-score without drug: higher = more viable cells with knock-down alone
Hit rule: 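a pool counts as active when its viability z-score with doxorubicin is -2 or below and its z-score without drug lies between -2 and 2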
The deposit covers about 17,000 reagents; shown is an unselected part. 788 of them (4.7%) count as active. 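Calls rest on z-score classes alone; an extra cut-off of viability at most 70% of control was not applied to them.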 Unmarked entries are inactive. Not all columns of the deposit are shown. No sequences are given here.

gene knocked down	combined z-score class	viability z-score with doxorubicin	viability z-score without drug
Lao1 (GeneID 100470)	no change with or without drug	-1.12	0.84
B230206H07Rik (GeneID 320871)	no change with or without drug	-1.35	0.51
Cripto (GeneID 21667)	no change with or without drug	-0.67	-0.67
Serpinf1 (GeneID 20317)	high cell count with and without drug	2.36	2.87
NALP6	high cell count without drug only	1.12	2.36
Crkl (GeneID 12929)	no change with or without drug	-1.69	-1.69
Cc2d1b (GeneID 319965)	no change with or without drug	0.9	0.17
Dennd6b (GeneID 69440)	high cell count without drug only	-0.11	3.2
Bcl2l2 (GeneID 12050)	no change with or without drug	-1.8	-0.84
Dkk2 (GeneID 56811)	no change with or without drug	-0.45	1.01
BC006965 (GeneID 217294)	high cell count without drug only	1.12	2.87
Epb41l5 (GeneID 226352)	no change with or without drug	0.79	-0.51
Ldlrap1 (GeneID 100017)	no change with or without drug	-0.22	-0.84
Spp1 (GeneID 20750)	no change with or without drug	1.8	1.85
Tcea3 (GeneID 21401)	no change with or without drug	0	1.69
Nedd8 (GeneID 18002)	no change with or without drug	0.67	-1.18
Kdelr1 (GeneID 68137)	low cell count with doxorubicin only (active)	-2.25	-0.51
Defb6 (GeneID 116746)	no change with or without drug	0.79	1.52
Zbtb1 (GeneID 268564)	no change with or without drug	0.67	0.51
1700028K03Rik (GeneID 76421)	no change with or without drug	-1.46	0.51

No new results follow: 3 of the entries above.
gene knocked down	combined z-score class	viability z-score with doxorubicin	viability z-score without drug
BC006965 (GeneID 217294)	high cell count without drug only	1.12	2.87
Epb41l5 (GeneID 226352)	no change with or without drug	0.79	-0.51
Ldlrap1 (GeneID 100017)	no change with or without drug	-0.22	-0.84
